Data: patent US20220041582A1, “ISOXAZOLINE COMPOUNDS FOR CONTROLLING INVERTEBRATE PESTS” (FMC Corporation, priority 2018, published 2022)
Some entries share one result that the patent states for a list of compounds.

Tests used:
Format in all cases: in vivo
[1] = system: Western Flower Thrips (Frankliniellla occidentalis (Pergande)); experiment: Test H: control of Western Flower Thrips through contact and/or systemic means; conditions: 6 days, 30% or less plant damage and/or 100% mortality
Procedure: Formulation and Spray Methodology for Tests A-H
Test compounds were formulated using a solution containing 10% acetone, 90% water and 300 ppm Activator 90® non-ionic surfactant (Loveland Products, Loveland, Colo., USA). The formulated compounds were applied in 1 mL of liquid through an atomizer nozzle positioned 1.27 cm (0.5 inches) above the top of each test unit. Test compounds were sprayed at the rates indicated, and each test was replicated three times.
For evaluating control of the Western Flower Thrips (Frankliniellla occidentalis (Pergande)) through contact and/or systemic means, the test unit consisted of a small open container with a 8-9-day-old Soleil bean plant inside.
Test compounds were formulated and sprayed at 250, 50, 10 and 2 ppm. After spraying, the test units were allowed to dry for 1 hour, and then ˜60 thrips (adults and nymphs) were added to each unit. A black, screened cap was placed on top, and the test units were held for 6 days at 25° C. and 45-55% relative humidity. Each test unit was then visually assessed for plant damage and insect mortality.

[2] = system: diamondback moth (Plutella xylostella (L.)); experiment: Test A: control of diamondback moth on mustard plant, foliar spray; conditions: 6 days, 40% or less feeding damage and/or 100% mortality
[3] = system: fall armyworm (Spodoptera frugiperda (J. E. Smith)); experiment: Test B: control of fall armyworm on corn plant, foliar spray; conditions: 10 ppm spray; 6 days; 40% or less feeding damage and/or 100% mortality

SMILES	control efficacy: plant damage (and/or 100% mortality) ([1]; 10 ppm spray) [%]	control efficacy: feeding damage (and/or 100% mortality) ([2]; 10 ppm spray) [%]	control efficacy: feeding damage (and/or 100% mortality) ([2]; 2 ppm spray) [%]	also measured
NC(=O)CNC(=O)c1ccc(C2=NOC(c3cccc(C(F)(F)F)c3)(C(F)(F)F)C2)c2ccncc12 (stereo not shown) [Compound 24]	≤ 30	–	–	–
O=C(NCC[S+]([O-])CC(F)(F)F)c1ccc(C2=NOC(c3cccc(C(F)(F)F)c3)(C(F)(F)F)C2)c2ccncc12 (stereo not shown) [Compound 31]	–	≤ 40	–	–
NC(=O)CNC(=O)c1ccc(C2=NOC(c3cc(Cl)cc(C(F)(F)F)c3)(C(F)(F)F)C2)c2ccncc12 (stereo not shown) [Compound 39]	≤ 30	≤ 40	–	–
C[C@@H](NC(=O)c1ccc(C2=NOC(c3cc(Cl)cc(C(F)(F)F)c3)(C(F)(F)F)C2)c2ccncc12)C(N)=O (stereo partly shown) [Compound 40]	≤ 30	≤ 40	≤ 40	–
C[S+]([O-])CCNC(=O)c1ccc(C2=NOC(c3cc(Cl)cc(C(F)(F)F)c3)(C(F)(F)F)C2)c2ccncc12 (stereo not shown) [Compound 41]	≤ 30	≤ 40	≤ 40	control efficacy: plant damage (and/or 100% mortality) ([1]; 2 ppm spray): ≤ 30%
CC(C)(C)NC(=O)c1ccc(C2=NOC(c3ccc(F)c(C(F)(F)F)c3)(C(F)(F)F)C2)c2ccncc12 (stereo not shown) [Compound 42]	–	≤ 40	≤ 40	control efficacy: feeding damage (and/or 100% mortality) [3]: ≤ 40%; control efficacy: feeding damage (and/or 100% mortality) ([2]; 0.4 ppm spray): ≤ 40%
O=C(NC1CSC1)c1ccc(C2=NOC(c3cc(Cl)c(F)c(Cl)c3)(C(F)(F)F)C2)c2ccncc12 (stereo not shown) [Compound 43]	≤ 30	≤ 40	≤ 40	control efficacy: feeding damage (and/or 100% mortality) ([2]; 0.4 ppm spray): ≤ 40%
C[C@@H](NC(=O)c1ccc(C2=NOC(c3cc(Cl)c(F)c(Cl)c3)(C(F)(F)F)C2)c2ccncc12)C(=O)NCC(F)(F)F (stereo partly shown) [Compound 56]	–	–	≤ 40	control efficacy: feeding damage (and/or 100% mortality) ([2]; 0.4 ppm spray): ≤ 40%
O=C(CNC(=O)c1ccc(C2=NOC(c3cc(Cl)c(F)c(Cl)c3)(C(F)(F)F)C2)c2ccncc12)NCC(F)(F)F (stereo not shown) [Compound 57]	–	–	≤ 40	–
C[C@H](CSCC(F)(F)F)NC(=O)c1ccc(C2=NOC(c3cc(Cl)c(F)c(Cl)c3)(C(F)(F)F)C2)c2ccncc12 (stereo partly shown) [Compound 62]	–	–	≤ 40	–
C[C@H](C[S+]([O-])CC(F)(F)F)NC(=O)c1ccc(C2=NOC(c3cc(Cl)c(F)c(Cl)c3)(C(F)(F)F)C2)c2ccncc12 (stereo partly shown) [Compound 64]	–	–	≤ 40	–
C[C@H](CS(=O)(=O)CC(F)(F)F)NC(=O)c1ccc(C2=NOC(c3cc(Cl)c(F)c(Cl)c3)(C(F)(F)F)C2)c2ccncc12 (stereo partly shown) [Compound 65]	–	–	≤ 40	–
CNC(=O)c1ccc(C2=NOC(c3cccc(C(F)(F)F)c3)(C(F)(F)F)C2)c2ccncc12 (stereo not shown) [Compound 93]	–	–	≤ 40	control efficacy: plant damage (and/or 100% mortality) ([1]; 0.4 ppm spray): ≤ 30%; control efficacy: plant damage (and/or 100% mortality) ([1]; 2 ppm spray): ≤ 30%
